In PubChem BioAssay AID250 (DTP/NCI, 2004):
The list is a part of this screen's results and no random one: it gathers some chemical classes. Not every dose and run of a compound is shown. T/C: endpoint of the treated group in % of that of the vehicle group. Some doses have a count of surviving animals in place of a T/C: the source files T/C as zero there, which appears to mark a toxic dose or a test without result, not a measured value. Some survivor counts are full or nearly so, which does not show that the dose was tolerated: the source hardly ever lists a survival T/C far under the control, and the zero likely stands for such cases as well. Counts of survivors are from the toxicity check (mostly the fifth day) where no day follows; animals may have died later. Schedule codes are those of the source, taken here to give the interval after Q, in days (D) or hours (H), and the number of doses after X. Some schedule codes hold Z or #, which are not explained here. Where survival is the endpoint, the PubChem record calls one and a half times the control and up active, and a quarter to a half above the control has no call in these data; cut-offs in other NCI protocols can differ. Some T/C values carry the count of animals alive at the toxicity check (mostly the fifth day); where neither a count nor a note follows, no animal had died by that day.

Test system: BDF1 mice, L1210 leukemia sc, survival T/C
Assay: NCI In Vivo Anticancer Drug Screen. Data for tumor model L1210 Leukemia (subcutaneous) in B6D2F1 (BDF1) mice
Conditions: higher T/C = longer survival
Method: The antitumor activity of compounds was measured in mice bearing transplantable tumors. Survival or tumor size were measured and the results are expressed as the measurement made in the treated group (T) divided by the measurement made in the vehicle treated control group (C). The tumor model used in this assay is L1210 Leukemia (subcutaneous) in B6D2F1 (BDF1) mice

SMILES: ClCCN(Cc1ccccc1)Cc1cccs1
- T/C (T/C endpoint: median survival time, dose: 5.0 mg/kg/injection, schedule: Q01DX Z (sc), vehicle: saline): 100 % of control [9 of 10 alive]
- T/C (T/C endpoint: median survival time, dose: 8.4 mg/kg/injection, schedule: Q01DX Z (sc), vehicle: saline): 105 % of control [9 of 10 alive]
- T/C (T/C endpoint: median survival time, dose: 14.0 mg/kg/injection, schedule: Q01DX Z (sc), vehicle: saline): 100 % of control [8 of 10 alive]
- T/C (T/C endpoint: median survival time, dose: 23.0 mg/kg/injection, schedule: Q01DX Z (sc), vehicle: saline): 100 % of control [9 of 10 alive]
- T/C (T/C endpoint: median survival time, dose: 39.0 mg/kg/injection, schedule: Q01DX Z (sc), vehicle: saline): 100 % of control [8 of 10 alive]
- T/C (T/C endpoint: median survival time, dose: 65.0 mg/kg/injection, schedule: Q01DX Z (sc), vehicle: saline): 100 % of control [9 of 10 alive]

SMILES: NNS(=O)(=O)c1ccc(N(CCCl)CCCl)cc1
- T/C (T/C endpoint: median survival time, dose: 112.0 mg/kg/injection, schedule: Q01DX Z (sc), vehicle: methylcellulose (MC)): 104 % of control [9 of 10 alive]
- survivor count (T/C endpoint: median survival time, dose: 180.0 mg/kg/injection, schedule: Q01DX Z (sc), vehicle: methylcellulose (MC)): 4 of 10
- T/C (T/C endpoint: median survival time, dose: 187.0 mg/kg/injection, schedule: Q01DX Z (sc), vehicle: methylcellulose (MC)): 100 % of control [9 of 10 alive]
- survivor count (T/C endpoint: median survival time, dose: 300.0 mg/kg/injection, schedule: Q01DX Z (sc), vehicle: methylcellulose (MC)): 3 of 10
- T/C (T/C endpoint: median survival time, dose: 311.0 mg/kg/injection, schedule: Q01DX Z (sc), vehicle: methylcellulose (MC)): 100 % of control [9 of 10 alive]
- survivor count (T/C endpoint: median survival time, dose: 500.0 mg/kg/injection, schedule: Q01DX Z (sc), vehicle: methylcellulose (MC)): 5 of 10
- T/C (T/C endpoint: median survival time, dose: 518.0 mg/kg/injection, schedule: Q01DX Z (sc), vehicle: methylcellulose (MC)): 100 % of control [7 of 10 alive]
- survivor count (T/C endpoint: median survival time, dose: 833.0 mg/kg/injection, schedule: Q01DX Z (sc), vehicle: methylcellulose (MC)): 3 of 10
- T/C (T/C endpoint: median survival time, dose: 861.0 mg/kg/injection, schedule: Q01DX Z (sc), vehicle: methylcellulose (MC)): 100 % of control [8 of 10 alive]
- survivor count (T/C endpoint: median survival time, dose: 1388.0 mg/kg/injection, schedule: Q01DX Z (sc), vehicle: methylcellulose (MC)): 1 of 10

SMILES: CCN(CCCl)Cc1cccc2ccccc12
- T/C (T/C endpoint: median survival time, dose: 5.0 mg/kg/injection, schedule: Q01DX Z (sc), vehicle: other): 90 % of control
- T/C (T/C endpoint: median survival time, dose: 8.4 mg/kg/injection, schedule: Q01DX Z (sc), vehicle: other): 90 % of control [8 of 10 alive]
- T/C (T/C endpoint: median survival time, dose: 14.0 mg/kg/injection, schedule: Q01DX Z (sc), vehicle: other): 95 % of control [9 of 10 alive]
- survivor count (T/C endpoint: median survival time, dose: 23.0 mg/kg/injection, schedule: Q01DX Z (sc), vehicle: other): 6 of 10
- T/C (T/C endpoint: median survival time, dose: 39.0 mg/kg/injection, schedule: Q01DX Z (sc), vehicle: other): 95 % of control
- survivor count (T/C endpoint: median survival time, dose: 65.0 mg/kg/injection, schedule: Q01DX Z (sc), vehicle: other): 4 of 10
- survivor count (T/C endpoint: median survival time, dose: 108.0 mg/kg/injection, schedule: Q01DX Z (sc), vehicle: other): 10 of 10

SMILES: CC1(C)CN1P(=O)(Nc1ncccn1)N1CC1(C)C (centres undefined)
- T/C (T/C endpoint: mean survival time, dose: 200.0 mg/kg/injection, schedule: Q08DX003 (sc), vehicle: saline, evaluated on day 7): 102 % of control
- T/C (T/C endpoint: mean survival time, dose: 200.0 mg/kg/injection, schedule: Q08DX003 (sc), vehicle: saline, evaluated on day 31): 102 % of control
- T/C (T/C endpoint: mean survival time, dose: 400.0 mg/kg/injection, schedule: Q08DX003 (sc), vehicle: saline, evaluated on day 7): 109 % of control
- T/C (T/C endpoint: mean survival time, dose: 400.0 mg/kg/injection, schedule: Q08DX003 (sc), vehicle: saline, evaluated on day 31): 109 % of control
- T/C (T/C endpoint: mean survival time, dose: 800.0 mg/kg/injection, schedule: Q08DX003 (sc), vehicle: saline, evaluated on day 7): 118 % of control
- T/C (T/C endpoint: mean survival time, dose: 800.0 mg/kg/injection, schedule: Q08DX003 (sc), vehicle: saline, evaluated on day 31): 118 % of control
- T/C (T/C endpoint: mean survival time, dose: 1600.0 mg/kg/injection, schedule: Q08DX003 (sc), vehicle: saline, evaluated on day 7): 117 % of control
- T/C (T/C endpoint: mean survival time, dose: 1600.0 mg/kg/injection, schedule: Q08DX003 (sc), vehicle: saline, evaluated on day 31): 117 % of control
- T/C (T/C endpoint: median survival time, dose: 200.0 mg/kg/injection, schedule: Q08DX003 (sc), vehicle: saline, evaluated on day 7): 105 % of control
- T/C (T/C endpoint: median survival time, dose: 200.0 mg/kg/injection, schedule: Q08DX003 (sc), vehicle: saline, evaluated on day 42): 100 % of control
- T/C (T/C endpoint: median survival time, dose: 400.0 mg/kg/injection, schedule: Q08DX003 (sc), vehicle: saline, evaluated on day 7): 113 % of control
- T/C (T/C endpoint: median survival time, dose: 400.0 mg/kg/injection, schedule: Q08DX003 (sc), vehicle: saline, evaluated on day 42): 111 % of control
- T/C (T/C endpoint: median survival time, dose: 800.0 mg/kg/injection, schedule: Q08DX003 (sc), vehicle: saline, evaluated on day 7): 115 % of control
- T/C (T/C endpoint: median survival time, dose: 800.0 mg/kg/injection, schedule: Q08DX003 (sc), vehicle: saline, evaluated on day 42): 111 % of control
- T/C (T/C endpoint: median survival time, dose: 1600.0 mg/kg/injection, schedule: Q08DX003 (sc), vehicle: saline, evaluated on day 7): 120 % of control
- T/C (T/C endpoint: median survival time, dose: 1600.0 mg/kg/injection, schedule: Q08DX003 (sc), vehicle: saline, evaluated on day 42): 116 % of control
